Record: PubChem BioAssay AID1671195 (Yale University, 2021)
This is an unselected part of about 22,000 reagents. About 1,510 of all reagents (6.9%) were called active. 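Active includes knockdowns raising or lowering LDL uptake; positive z-scores mean more uptake, negative mean less.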

Aim: 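Genes whose knockdown alters LDL uptake in liver cancer cells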 (primary screen)
Cells: human Huh7 hepatoma cells
Reagent: siRNA pool against human genes, 18 nM
Timing: about 2 to 2.5 days of knockdown, then 8 h LDL uptake
Treatment: DiI-labelled LDL at 30 µg/ml for 8 h, in lipoprotein-deficient serum medium
Measured: 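Fluorescent LDL signal imaged in cells, scaled to the plate median, robust z-score for each replicate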
Direction: robust z-score: higher = more LDL uptake after knockdown
Hit rule: 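a gene counts as active if at least two replicate z-scores exceed ±2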

Against GTPBP1 (GeneID 9567) the deposit lists robust z-score, replicate 1 = 4.61; robust z-score, replicate 2 = 3.99; robust z-score, replicate 3 = 6.14; active.
After knock-down of TSPYL1 (GeneID 7259), the record shows robust z-score, replicate 1 = 3.15; robust z-score, replicate 2 = 0.231; robust z-score, replicate 3 = 1.3; inactive.
TNR (GeneID 7143) showed robust z-score, replicate 1 = 0.226; robust z-score, replicate 2 = 0.791; robust z-score, replicate 3 = 0.94; inactive.
With knock-down of RBP1 (GeneID 5947), the screen gave robust z-score, replicate 1 = 0.744; robust z-score, replicate 2 = 0.574; robust z-score, replicate 3 = 0.331; inactive.
Knock-down of NMUR1 (GeneID 10316) resulted in: robust z-score, replicate 1 = 0.647; robust z-score, replicate 2 = 0.953; robust z-score, replicate 3 = 1.53; inactive.
Depletion of ZNF503-AS2 (GeneID 100131213) gave: robust z-score, replicate 1 = 0.996; robust z-score, replicate 2 = 1.29; robust z-score, replicate 3 = 1.1; inactive.
ST3GAL1 (GeneID 6482) gave robust z-score, replicate 1 = 1.46; robust z-score, replicate 2 = 1.25; robust z-score, replicate 3 = 1.75; inactive.

A few values from above.
For “call”, RBP1 (GeneID 5947) shows inactive
TNR (GeneID 7143), robust z-score, replicate 2 = 0.791

More results follow:
SLC9A6 (GeneID 10479) scored robust z-score, replicate 1 = -0.917; robust z-score, replicate 2 = -1.29; robust z-score, replicate 3 = -0.671; inactive.
PCCA (GeneID 5095) showed robust z-score, replicate 1 = -1.66; robust z-score, replicate 2 = -0.749; robust z-score, replicate 3 = -0.402; inactive.
With knock-down of PRKAR1A (GeneID 5573), the record shows robust z-score, replicate 1 = -1.02; robust z-score, replicate 2 = -1.17; robust z-score, replicate 3 = -1.42; inactive.
Against NFIC (GeneID 4782) the deposit lists robust z-score, replicate 1 = -0.97; robust z-score, replicate 2 = -1.25; robust z-score, replicate 3 = -1.13; inactive.
DCC (GeneID 1630) scored robust z-score, replicate 1 = 0.874; robust z-score, replicate 2 = 1.18; robust z-score, replicate 3 = 0.95; inactive.
